Data source: PubChem BioAssay AID504774 (Drosophila RNAi Screening Center, 2011)
The screen tested about 23,000 reagents; this is an unselected part of those that have a named target and a result. 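Values are quantile-normalised luminescence on an arbitrary scale; higher means more cells surviving MMS.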 The numbers tell different reagents against one gene apart. A plus sign joins genes that one reagent is predicted to hit. Further read-outs or replicates are left out here.

Screen: 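Fly genes whose loss alters survival after alkylation damage to DNA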 (primary screen)
Cells: Drosophila Kc167 cells
Knock-down reagent: long dsRNA against Drosophila genes, about 0.25 µg dsRNA per well
Duration: about 6 days: 3 days knock-down, then 3 days with or without MMS
Challenge: methyl methanesulphonate 0.004% (w/v) for 3 days after knock-down
Measured: 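Viability in wells given MMS, read as ATP luminescence, normalised by quantiles plate by plate and averaged across replicates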
Direction: mean viability with MMS: higher = more surviving cells after MMS

{"Target gene":"CG2938","reagent":1,"mean viability with MMS":3.55e6}
{"Target gene":"CG31054 (retired record)","reagent":1,"mean viability with MMS":3.42e6}
{"Target gene":"CG6244","reagent":1,"mean viability with MMS":3.64e6}
{"Target gene":"CG7011 + Prp31","reagent":1,"mean viability with MMS":3.58e6}
{"Target gene":"CG10013","reagent":1,"mean viability with MMS":3.70e6}

2 entries already listed, ordered by “mean viability with MMS”, lowest first:
{"Target gene":"CG7011 + Prp31","reagent":1,"mean viability with MMS":3.58e6}
{"Target gene":"CG10013","reagent":1,"mean viability with MMS":3.70e6}

Further results:
{"Target gene":"eIF4E6 (eukaryotic translation initiation factor 4E6)","reagent":1,"mean viability with MMS":3.41e6}
{"Target gene":"CG17271","reagent":1,"mean viability with MMS":3.47e6}
{"Target gene":"CG17271","reagent":2,"mean viability with MMS":3.06e6}
{"Target gene":"CG17271","reagent":3,"mean viability with MMS":3.44e6}
{"Target gene":"lap (like-AP180)","reagent":1,"mean viability with MMS":3.67e6}
{"Target gene":"CG13561","reagent":1,"mean viability with MMS":3.57e6}
{"Target gene":"lin-28","reagent":1,"mean viability with MMS":3.31e6}
{"Target gene":"Pp2A-29B (Protein phosphatase 2A at 29B)","reagent":1,"mean viability with MMS":3.79e6}
{"Target gene":"POLDIP2 (Polymerase (DNA-directed), delta interacting protein 2)","reagent":1,"mean viability with MMS":3.72e6}
